The test can be described thus: qHTS Assay for Lipid Storage Modulators in Drosophila S3 Cells.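 As to cell number change: cells counted by Cell Tracker Red CMTPX staining in the red channel.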 The settings on record: BODIPY lipid droplet fluorescence, 18-24 h. A digest of the protocol: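 Drosophila S3 cells loaded with oleic acid (400 uM, as added) and compounds at several concentrations; lipid droplets imaged by 488-nm laser-scanning cytometry, 500–530 nm intensity and object ratio to cell channel. Percent activity normalized to 20 uM Triacsin C.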
(In general: Quantitative high-throughput screening tests each substance at several concentrations.)

The other results are listed elsewhere or left out. The main result of the screen is listed elsewhere. These columns were measured beside it and carry no call. Compounds called inactive in the main read-out are mostly missing here. The note in brackets gives the kind of curve behind each potency; many fits are weak.

With `O=C(CSc1ncnc2sccc12)N1CCN(C(=O)c2cccs2)CC1`, the cell number change (measured here: cell count max response, cells fed with added oleic acid) is -31.8%. In addition, the AC50 (in general, the midpoint of the concentration-response curve, whichever way the signal moves) is, setting by setting: (measured here: cell number channel AC50, cells fed with added oleic acid) 4.61 µM [falling, full curve, poor fit]; (measured here: lipid fluorescence (Fed channel) AC50, cells fed with added oleic acid) 5.17 µM [falling, full curve, poor fit].

Source of the values: PubChem BioAssay AID2685 (National Center for Advancing Translational Sciences (NCATS), 2010).
